Results are given in words; binding and its absence hold for the method and conditions named. Binding seen in cells or lysates may run through a third protein. Some binding calls cover weakened binding; strength is not graded here.
Target: Dicer (human (endogenous in MM6)) (UniProt Q9UPY3)
Assay: proximity ligation; in situ PLA (Duolink In Situ Red Starter Kit Mouse/Rabbit) in fixed, permeabilised wild-type MM6 cells differentiated with 1 ng/mL TGF-β and 50 nM calcitriol for 4 days; mouse anti-5-LO 6A12 and rabbit anti-Dicer; 5LOΔ MM6 cells as control gave no signals

The chains behind the UniProt entries cited, without tags or fusion partners.
UniProt Q9UPY3: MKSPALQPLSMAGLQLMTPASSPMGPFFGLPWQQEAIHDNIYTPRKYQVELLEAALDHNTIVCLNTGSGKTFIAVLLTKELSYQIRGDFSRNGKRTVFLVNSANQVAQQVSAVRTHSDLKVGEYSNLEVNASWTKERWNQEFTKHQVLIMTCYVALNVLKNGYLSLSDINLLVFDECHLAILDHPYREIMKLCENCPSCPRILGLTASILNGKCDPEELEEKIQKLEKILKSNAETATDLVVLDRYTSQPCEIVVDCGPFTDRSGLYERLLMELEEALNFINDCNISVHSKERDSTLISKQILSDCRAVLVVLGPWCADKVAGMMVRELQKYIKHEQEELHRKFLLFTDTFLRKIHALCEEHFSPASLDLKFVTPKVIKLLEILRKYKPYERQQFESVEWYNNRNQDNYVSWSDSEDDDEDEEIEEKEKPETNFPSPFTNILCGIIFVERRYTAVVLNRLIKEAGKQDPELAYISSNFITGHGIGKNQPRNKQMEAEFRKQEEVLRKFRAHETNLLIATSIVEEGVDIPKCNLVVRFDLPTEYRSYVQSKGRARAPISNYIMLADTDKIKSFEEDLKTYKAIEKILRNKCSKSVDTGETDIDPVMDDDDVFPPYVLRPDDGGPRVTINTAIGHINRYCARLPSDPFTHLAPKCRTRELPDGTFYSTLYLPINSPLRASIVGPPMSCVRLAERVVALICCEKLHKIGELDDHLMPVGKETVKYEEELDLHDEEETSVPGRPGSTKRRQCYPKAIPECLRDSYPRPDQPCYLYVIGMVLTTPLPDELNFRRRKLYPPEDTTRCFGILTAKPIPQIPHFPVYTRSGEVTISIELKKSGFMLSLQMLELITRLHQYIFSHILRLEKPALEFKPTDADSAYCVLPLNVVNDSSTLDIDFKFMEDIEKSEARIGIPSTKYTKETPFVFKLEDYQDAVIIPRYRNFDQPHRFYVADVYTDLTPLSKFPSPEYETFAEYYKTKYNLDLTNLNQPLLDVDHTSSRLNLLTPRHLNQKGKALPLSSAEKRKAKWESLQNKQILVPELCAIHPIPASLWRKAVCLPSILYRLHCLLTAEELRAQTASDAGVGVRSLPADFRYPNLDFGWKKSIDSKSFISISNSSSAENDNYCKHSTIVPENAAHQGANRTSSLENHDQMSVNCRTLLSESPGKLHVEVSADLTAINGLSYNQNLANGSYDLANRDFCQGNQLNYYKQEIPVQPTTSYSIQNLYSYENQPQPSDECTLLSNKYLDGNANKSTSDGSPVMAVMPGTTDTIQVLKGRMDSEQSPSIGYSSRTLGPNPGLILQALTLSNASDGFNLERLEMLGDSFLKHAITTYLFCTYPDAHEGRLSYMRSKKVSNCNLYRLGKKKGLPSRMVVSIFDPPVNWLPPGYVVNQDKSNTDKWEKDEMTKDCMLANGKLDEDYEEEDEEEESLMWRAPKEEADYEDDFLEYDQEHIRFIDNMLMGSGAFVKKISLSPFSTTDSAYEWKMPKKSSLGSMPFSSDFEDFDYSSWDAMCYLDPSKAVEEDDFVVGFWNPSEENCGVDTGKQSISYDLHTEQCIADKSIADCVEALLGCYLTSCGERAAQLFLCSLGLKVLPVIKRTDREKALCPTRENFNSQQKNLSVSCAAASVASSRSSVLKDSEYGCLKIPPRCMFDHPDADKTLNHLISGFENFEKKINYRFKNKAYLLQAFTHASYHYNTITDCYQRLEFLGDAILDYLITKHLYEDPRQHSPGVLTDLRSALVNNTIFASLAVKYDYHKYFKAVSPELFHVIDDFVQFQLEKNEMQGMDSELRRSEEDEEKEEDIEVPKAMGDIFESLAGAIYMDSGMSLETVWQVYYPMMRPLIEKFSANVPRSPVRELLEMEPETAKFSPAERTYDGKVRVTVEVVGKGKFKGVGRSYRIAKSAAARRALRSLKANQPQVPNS

B1: 5‐lipoxygenase (enzyme, UniProt P09917-1 1-674)
chain: MPSYTVTVATGSQWFAGTDDYIYLSLVGSAGCSEKHLLDKPFYNDFERGAVDSYDVTVDEELGEIQLVRIEKRKYWLNDDWYLKYITLKTPHGDYIEFPCYRWITGDVEVVLRDGRAKLARDDQIHILKQHRRKELETRQKQYRWMEWNPGFPLSIDAKCHKDLPRDIQFDSEKGVDFVLNYSKAMENLFINRFMHMFQSSWNDFADFEKIFVKISNTISERVMNHWQEDLMFGYQFLNGCNPVLIRRCTELPEKLPVTTEMVECSLERQLSLEQEVQQGNIFIVDFELLDGIDANKTDPCTLQFLAAPICLLYKNLANKIVPIAIQLNQIPGDENPIFLPSDAKYDWLLAKIWVRSSDFHVHQTITHLLRTHLVSEVFGIAMYRQLPAVHPIFKLLVAHVRFTIAINTKAREQLICECGLFDKANATGGGGHVQMVQRAMKDLTYASLCFPEAIKARGMESKEDIPYYFYRDDGLLVWEAIRTFTAEVVDIYYEGDQVVEEDPELQDFVNDVYVYGMRGRKSSGFPKSVKSREQLSEYLTVVIFTASAQHAAVNFGQYDWCSWIPNAPPTMRAPPPTAKGVVTIEQIVDTLPDRGRSCWHLGAVWALSQFQENELFLGMYPEEHFIEKPVKEAMARFRKNLEAIVSVIAERNKKKQLPYYYLSPDRIPNSVAI
  binding: binds

Reference: publication PMC12315505
